Measurements: paper doi:10.1101/842476
These are yes or no findings as the source states them, for the method shown. Binding seen in cells or lysates may run through a third protein. Some binding calls cover weakened binding; strength is not graded here.

Sequences of proteins named here, by UniProt entry; tags and fusion partners are left off. Residues count along the entry.
UniProt Q5M848: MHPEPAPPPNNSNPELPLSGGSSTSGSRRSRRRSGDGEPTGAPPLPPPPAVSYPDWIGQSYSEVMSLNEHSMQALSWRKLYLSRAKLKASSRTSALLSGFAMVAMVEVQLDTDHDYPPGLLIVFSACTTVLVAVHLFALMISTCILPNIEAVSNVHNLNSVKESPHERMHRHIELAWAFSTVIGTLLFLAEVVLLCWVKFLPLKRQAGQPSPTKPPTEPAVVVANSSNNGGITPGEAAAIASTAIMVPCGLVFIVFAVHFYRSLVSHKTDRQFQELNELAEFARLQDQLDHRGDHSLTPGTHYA
UniProt P84903, residues 23-685: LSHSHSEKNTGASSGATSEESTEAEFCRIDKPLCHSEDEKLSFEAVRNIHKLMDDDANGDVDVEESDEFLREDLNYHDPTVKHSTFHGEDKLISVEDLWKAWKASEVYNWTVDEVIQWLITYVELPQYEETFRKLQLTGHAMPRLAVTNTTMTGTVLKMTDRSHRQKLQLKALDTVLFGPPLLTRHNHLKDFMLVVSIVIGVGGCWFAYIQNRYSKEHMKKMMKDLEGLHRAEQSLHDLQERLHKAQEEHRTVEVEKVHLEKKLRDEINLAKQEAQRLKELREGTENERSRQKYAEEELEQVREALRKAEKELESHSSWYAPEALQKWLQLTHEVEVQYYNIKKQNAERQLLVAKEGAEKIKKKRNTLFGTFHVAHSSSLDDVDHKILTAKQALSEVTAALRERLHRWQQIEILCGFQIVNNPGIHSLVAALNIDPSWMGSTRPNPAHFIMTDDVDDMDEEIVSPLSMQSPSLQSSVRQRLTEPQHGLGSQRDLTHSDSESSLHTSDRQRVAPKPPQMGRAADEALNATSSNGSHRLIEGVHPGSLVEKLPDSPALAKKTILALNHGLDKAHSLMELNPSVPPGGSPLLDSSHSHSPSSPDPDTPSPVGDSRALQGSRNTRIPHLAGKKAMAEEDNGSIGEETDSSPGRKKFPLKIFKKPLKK

Target: Orai1 (rat (endogenous in DRG neurons)) (UniProt Q5M848)
Experiment: proximity ligation

- binding: binds
Substance: STIM1 (from UniProt P84903 23-685)
